{
  "sequences": {"note": "The chains behind the UniProt entries cited, without tags or fusion partners. Residues count along the entry.", "UniProt P35869, residues 11-848": "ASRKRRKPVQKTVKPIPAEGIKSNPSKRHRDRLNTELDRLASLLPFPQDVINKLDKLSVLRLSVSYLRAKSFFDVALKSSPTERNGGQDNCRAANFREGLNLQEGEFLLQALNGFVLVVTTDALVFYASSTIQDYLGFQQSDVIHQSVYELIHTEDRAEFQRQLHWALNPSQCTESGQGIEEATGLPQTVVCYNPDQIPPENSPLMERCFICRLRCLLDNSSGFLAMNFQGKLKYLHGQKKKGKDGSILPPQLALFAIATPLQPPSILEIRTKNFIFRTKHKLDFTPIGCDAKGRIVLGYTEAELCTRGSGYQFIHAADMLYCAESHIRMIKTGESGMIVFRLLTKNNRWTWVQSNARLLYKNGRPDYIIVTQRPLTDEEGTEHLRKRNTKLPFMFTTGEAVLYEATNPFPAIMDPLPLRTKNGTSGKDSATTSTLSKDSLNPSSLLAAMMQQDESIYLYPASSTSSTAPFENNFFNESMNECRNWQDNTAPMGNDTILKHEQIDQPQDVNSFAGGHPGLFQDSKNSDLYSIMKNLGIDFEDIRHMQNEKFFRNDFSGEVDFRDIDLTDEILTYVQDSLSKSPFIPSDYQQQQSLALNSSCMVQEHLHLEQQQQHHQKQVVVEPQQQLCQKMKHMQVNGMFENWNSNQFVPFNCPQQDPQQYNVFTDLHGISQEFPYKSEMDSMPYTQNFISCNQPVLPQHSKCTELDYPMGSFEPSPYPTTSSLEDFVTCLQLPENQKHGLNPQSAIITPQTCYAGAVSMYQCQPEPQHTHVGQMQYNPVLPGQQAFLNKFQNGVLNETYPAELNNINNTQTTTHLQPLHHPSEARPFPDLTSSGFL"},
  "source": "paper PMC7297794",
  "binders": {"B1": {"name": "ubiquitin carboxyl terminal hydrolase L3 (UCHL3) (enzyme, UniProt P15374 1-230)", "chain": "MEGQRWLPLEANPEVTNQFLKQLGLHPNWQFVDVYGMDPELLSMVPRPVCAVLLLFPITEKYEVFRTEEEEKIKSQGQDVTSSVYFMKQTISNACGTIGLIHAIANNKDKMHFESGSTLKKFLEESVSMSPEERARYLENYDAIRVTHETSAHEGQTEAPSIDEKVDLHFIALVHVDGHLYELDGRKPFPINHGETSDETLLEDAIEVCKKFMERDPDELRFNAIALSAA"}},
  "biological_target": "Aryl hydrocarbon receptor (AhR) (UniProt P35869)",
  "assay": "co-IP; AhR and UCHL3 coexpressed in HEK293T cells; 1 mg of total protein in IP buffer, 2 ug anti-AhR antibody (sc-133088) at 4 °C overnight, Dynabeads protein G; IgG as negative control; UCHL3 detected by western blot",
  "note": "These are yes or no findings as the source states them, for the method shown. Binding seen in cells or lysates may run through a third protein. Some entries that bind do so weakly or less than the wild type.",
  "data": [
    {"binder": "B1", "values": [
      {"measurement": "binding", "result": "binds"}
    ]}
  ]
}
